Results: article PMC8892010
Substitutions are numbered along the chain they refer to. Results are given in words; binding and its absence hold for the method and conditions named. In cells and extracts the contact can be indirect. Some binding calls cover weakened binding; strength is not graded here. Sequences can lack the tags named with a protein.

Amino acid sequences for entries named in this document (tags omitted).
UniProt Q12791: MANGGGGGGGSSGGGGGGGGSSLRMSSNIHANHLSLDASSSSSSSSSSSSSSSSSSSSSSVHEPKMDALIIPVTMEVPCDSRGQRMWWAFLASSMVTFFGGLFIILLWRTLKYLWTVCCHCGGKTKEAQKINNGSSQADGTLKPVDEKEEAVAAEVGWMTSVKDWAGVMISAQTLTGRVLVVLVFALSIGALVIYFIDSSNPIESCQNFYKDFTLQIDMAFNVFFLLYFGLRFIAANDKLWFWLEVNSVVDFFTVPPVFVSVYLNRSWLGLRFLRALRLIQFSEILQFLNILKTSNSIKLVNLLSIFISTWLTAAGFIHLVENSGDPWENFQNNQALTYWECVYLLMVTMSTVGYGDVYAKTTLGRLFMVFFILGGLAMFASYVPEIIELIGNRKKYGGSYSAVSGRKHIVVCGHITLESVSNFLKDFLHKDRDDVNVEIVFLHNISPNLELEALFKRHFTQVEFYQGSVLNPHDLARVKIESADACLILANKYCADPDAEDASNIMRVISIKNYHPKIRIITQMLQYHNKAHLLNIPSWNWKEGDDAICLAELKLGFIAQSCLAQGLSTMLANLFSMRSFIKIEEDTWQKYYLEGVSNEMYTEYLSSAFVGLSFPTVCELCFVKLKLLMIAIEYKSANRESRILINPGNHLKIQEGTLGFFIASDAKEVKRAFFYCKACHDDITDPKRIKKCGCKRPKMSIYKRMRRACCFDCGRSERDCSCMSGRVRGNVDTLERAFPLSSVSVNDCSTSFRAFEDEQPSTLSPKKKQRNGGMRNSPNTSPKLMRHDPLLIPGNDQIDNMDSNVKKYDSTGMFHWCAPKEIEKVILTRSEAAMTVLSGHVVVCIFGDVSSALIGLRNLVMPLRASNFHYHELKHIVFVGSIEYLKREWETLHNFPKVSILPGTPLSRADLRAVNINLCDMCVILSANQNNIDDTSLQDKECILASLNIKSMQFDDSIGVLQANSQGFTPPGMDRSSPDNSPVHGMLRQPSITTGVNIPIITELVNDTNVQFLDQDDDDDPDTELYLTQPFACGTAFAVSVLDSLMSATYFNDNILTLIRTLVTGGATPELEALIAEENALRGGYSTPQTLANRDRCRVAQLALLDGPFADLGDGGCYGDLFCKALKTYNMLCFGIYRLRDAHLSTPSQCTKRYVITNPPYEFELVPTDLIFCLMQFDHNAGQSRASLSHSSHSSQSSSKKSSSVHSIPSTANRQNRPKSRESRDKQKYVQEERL

Legend:
[1] = target: T1, BK channel γ1 subunit (LRRC26) N147Q mutant, N-terminally FLAG-tagged (human) (UniProt Q2I0M4); assay: co-IP; cell surface immunoprecipitation: live HEK-293 cells coexpressing BKα and N-terminally FLAG-tagged γ1 incubated with rabbit polyclonal anti-FLAG antibody in PBS for 30 min at ambient temperature, lysed with 2% DDM in TBS, protein A agarose at 4 °C overnight; BKα detected by immunoblot and normalised to the γ1 band; cells treated with or without tunicamycin (5 μg/ml, 20 h)
T1 sequence: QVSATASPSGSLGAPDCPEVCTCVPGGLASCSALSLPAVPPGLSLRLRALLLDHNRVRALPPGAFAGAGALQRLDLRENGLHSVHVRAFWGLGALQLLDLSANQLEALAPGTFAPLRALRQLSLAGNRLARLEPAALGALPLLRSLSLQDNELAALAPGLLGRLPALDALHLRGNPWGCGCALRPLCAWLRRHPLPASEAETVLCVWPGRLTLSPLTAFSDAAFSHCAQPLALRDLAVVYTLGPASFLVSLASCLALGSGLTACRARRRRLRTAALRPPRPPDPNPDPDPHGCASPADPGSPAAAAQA

[2] = target: T2, BK channel γ1 subunit (LRRC26), wild type, N-terminally FLAG-tagged (human) (UniProt Q2I0M4); assay: as above
T2 sequence (chain, N-linked glycan at N147 (absent after treatment of the cells with tunicamycin)): T1 sequence with Q121N

BK channel α subunit (BKα) (from UniProt Q12791 1-1236)
binding [1]: binds | binding [2]: binds
